Results: the supplement of paper PMC10849652
The list shows a part of the results.

Protein sequences, listed by entry. Tags and fused reporters are not part of them. Lines headed by an entry give the natural chain unless they say otherwise; changes in a name come on top.
UniProt P78347: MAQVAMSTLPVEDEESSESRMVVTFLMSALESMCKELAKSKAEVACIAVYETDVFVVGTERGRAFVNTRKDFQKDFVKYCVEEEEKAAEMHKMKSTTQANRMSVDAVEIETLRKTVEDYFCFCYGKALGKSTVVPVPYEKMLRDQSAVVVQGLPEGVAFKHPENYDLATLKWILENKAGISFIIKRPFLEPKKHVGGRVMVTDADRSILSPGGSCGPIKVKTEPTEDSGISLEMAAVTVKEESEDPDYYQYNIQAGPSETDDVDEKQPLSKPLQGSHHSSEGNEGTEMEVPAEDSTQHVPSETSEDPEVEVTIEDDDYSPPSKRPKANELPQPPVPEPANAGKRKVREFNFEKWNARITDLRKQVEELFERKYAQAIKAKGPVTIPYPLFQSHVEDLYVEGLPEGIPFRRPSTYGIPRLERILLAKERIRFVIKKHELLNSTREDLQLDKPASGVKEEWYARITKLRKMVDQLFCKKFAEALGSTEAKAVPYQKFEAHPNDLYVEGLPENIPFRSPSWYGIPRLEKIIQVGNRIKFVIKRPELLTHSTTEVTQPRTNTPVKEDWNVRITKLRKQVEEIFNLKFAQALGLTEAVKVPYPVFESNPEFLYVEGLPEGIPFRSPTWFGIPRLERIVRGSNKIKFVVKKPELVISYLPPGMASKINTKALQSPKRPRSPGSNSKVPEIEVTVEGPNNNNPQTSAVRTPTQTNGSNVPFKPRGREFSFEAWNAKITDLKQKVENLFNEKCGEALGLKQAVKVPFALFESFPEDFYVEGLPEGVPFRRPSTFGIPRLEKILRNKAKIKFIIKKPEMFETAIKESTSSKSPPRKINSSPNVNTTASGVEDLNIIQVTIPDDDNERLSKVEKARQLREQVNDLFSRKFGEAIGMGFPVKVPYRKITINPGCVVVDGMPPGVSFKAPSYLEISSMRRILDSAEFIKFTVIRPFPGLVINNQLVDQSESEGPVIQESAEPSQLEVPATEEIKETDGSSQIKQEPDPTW
UniProt P16401, whole entry, looked up: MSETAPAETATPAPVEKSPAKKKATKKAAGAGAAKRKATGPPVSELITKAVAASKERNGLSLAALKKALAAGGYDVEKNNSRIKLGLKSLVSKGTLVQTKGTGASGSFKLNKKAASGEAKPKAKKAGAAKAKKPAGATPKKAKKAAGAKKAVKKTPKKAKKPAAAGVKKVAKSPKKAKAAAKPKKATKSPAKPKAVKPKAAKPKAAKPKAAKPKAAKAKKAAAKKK
UniProt P13807: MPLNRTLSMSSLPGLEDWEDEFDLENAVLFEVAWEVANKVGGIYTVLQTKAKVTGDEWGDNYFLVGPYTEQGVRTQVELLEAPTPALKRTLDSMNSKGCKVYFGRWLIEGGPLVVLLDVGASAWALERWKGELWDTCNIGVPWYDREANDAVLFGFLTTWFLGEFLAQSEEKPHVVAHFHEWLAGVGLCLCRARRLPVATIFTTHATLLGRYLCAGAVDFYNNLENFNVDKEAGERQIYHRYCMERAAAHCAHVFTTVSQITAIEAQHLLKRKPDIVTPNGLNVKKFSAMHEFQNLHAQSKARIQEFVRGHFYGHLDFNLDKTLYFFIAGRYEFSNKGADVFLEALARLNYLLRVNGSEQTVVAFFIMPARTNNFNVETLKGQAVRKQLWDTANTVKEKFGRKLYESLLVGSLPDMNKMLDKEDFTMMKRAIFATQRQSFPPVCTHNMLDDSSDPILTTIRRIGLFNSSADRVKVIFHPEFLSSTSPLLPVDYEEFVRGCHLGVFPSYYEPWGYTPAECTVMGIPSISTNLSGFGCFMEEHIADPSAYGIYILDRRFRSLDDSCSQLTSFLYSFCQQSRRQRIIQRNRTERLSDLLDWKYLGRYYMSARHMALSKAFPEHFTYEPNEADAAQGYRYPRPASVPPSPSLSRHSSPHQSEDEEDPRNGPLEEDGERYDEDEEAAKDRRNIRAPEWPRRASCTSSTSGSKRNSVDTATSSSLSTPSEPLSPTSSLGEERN
UniProt P08236: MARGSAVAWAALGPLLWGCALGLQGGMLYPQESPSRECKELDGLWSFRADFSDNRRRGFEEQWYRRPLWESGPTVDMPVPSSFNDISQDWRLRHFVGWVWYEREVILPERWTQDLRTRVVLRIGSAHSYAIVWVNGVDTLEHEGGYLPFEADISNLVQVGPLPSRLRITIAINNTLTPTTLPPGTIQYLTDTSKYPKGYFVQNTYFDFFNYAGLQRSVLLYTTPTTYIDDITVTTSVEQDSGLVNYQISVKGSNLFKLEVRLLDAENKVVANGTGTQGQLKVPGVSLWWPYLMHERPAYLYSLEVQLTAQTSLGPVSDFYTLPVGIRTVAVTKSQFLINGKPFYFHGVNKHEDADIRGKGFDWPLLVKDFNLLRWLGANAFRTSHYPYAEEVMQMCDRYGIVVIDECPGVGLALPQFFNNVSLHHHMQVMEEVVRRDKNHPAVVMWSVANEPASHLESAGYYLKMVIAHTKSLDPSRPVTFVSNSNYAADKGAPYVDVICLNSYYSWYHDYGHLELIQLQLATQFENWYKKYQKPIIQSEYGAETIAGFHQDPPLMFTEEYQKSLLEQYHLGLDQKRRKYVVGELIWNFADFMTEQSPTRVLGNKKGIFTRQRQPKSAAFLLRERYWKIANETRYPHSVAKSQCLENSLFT
UniProt Q9BX10: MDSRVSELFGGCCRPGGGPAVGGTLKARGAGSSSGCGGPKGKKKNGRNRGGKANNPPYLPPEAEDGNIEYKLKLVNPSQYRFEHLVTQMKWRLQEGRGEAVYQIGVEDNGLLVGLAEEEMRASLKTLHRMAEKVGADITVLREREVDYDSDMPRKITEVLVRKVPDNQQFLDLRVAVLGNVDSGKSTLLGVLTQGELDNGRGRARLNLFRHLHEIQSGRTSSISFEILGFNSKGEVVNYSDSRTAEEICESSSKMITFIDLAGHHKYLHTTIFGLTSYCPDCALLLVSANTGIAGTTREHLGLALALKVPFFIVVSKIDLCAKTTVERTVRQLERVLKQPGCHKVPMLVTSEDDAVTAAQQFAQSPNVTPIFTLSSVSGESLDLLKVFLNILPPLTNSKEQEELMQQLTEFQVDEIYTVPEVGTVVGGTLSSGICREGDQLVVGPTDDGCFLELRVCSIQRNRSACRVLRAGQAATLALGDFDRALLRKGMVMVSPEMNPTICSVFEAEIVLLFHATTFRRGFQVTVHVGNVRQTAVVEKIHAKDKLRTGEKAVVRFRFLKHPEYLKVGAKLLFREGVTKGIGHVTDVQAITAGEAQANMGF
UniProt P29084: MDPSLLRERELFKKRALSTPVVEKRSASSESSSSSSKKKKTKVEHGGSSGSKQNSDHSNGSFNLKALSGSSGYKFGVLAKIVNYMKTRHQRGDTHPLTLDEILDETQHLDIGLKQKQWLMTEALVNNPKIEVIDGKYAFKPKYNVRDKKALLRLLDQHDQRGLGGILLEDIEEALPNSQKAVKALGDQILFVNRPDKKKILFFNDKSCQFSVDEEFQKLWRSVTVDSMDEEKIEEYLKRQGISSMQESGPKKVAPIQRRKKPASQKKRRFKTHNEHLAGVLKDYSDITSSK
UniProt Q12789: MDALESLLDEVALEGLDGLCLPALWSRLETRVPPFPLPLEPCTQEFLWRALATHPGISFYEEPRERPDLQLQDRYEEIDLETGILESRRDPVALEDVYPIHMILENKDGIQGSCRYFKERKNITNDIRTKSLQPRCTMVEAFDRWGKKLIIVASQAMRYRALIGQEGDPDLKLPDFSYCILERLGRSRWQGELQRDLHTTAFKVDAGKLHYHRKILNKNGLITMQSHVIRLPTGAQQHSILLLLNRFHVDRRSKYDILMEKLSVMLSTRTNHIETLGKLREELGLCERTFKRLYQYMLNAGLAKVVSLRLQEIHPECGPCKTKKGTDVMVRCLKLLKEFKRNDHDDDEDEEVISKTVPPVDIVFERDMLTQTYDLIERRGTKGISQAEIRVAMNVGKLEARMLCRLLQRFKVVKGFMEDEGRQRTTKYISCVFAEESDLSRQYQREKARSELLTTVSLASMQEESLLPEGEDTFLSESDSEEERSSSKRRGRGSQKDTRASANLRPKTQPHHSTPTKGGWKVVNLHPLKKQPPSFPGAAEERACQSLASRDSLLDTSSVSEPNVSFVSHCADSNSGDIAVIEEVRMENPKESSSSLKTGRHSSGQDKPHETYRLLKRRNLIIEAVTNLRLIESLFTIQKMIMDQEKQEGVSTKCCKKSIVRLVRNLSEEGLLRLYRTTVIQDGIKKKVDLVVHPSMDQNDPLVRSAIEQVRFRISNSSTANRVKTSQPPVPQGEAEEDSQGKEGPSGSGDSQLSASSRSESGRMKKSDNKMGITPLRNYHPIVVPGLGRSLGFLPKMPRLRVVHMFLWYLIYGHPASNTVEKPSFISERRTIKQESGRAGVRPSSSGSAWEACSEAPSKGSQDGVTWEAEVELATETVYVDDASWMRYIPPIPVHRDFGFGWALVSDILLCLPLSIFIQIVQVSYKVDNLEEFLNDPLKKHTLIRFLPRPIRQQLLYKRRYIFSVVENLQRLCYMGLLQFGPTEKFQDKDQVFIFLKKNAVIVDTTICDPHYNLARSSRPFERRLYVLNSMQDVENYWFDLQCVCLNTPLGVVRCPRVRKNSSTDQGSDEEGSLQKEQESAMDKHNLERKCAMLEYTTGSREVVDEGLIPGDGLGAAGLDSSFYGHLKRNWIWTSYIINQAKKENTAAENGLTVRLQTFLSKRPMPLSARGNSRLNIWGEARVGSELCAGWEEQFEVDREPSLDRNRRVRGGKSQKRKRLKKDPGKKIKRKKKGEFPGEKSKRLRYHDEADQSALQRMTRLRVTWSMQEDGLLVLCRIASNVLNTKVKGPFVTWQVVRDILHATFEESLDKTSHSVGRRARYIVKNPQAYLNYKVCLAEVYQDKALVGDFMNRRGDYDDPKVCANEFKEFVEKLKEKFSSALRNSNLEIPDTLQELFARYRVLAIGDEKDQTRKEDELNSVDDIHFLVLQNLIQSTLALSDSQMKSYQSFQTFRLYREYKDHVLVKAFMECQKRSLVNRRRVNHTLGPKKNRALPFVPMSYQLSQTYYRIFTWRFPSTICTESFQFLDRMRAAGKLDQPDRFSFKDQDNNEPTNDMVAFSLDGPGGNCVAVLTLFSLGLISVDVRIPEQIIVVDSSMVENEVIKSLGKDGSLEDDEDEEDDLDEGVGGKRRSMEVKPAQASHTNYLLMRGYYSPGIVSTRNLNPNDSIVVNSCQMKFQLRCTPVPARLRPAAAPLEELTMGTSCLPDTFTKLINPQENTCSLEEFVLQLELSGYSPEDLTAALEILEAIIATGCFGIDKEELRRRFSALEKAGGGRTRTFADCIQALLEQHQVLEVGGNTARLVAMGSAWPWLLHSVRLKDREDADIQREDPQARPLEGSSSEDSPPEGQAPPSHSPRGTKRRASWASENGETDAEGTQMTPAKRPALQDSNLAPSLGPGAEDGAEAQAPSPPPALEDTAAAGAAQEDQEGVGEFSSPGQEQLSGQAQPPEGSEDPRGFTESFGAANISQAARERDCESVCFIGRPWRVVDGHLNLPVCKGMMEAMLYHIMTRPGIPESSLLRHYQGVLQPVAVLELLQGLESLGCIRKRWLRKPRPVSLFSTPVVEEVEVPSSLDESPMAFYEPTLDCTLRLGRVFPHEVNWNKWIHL
UniProt Q9Y2Q3: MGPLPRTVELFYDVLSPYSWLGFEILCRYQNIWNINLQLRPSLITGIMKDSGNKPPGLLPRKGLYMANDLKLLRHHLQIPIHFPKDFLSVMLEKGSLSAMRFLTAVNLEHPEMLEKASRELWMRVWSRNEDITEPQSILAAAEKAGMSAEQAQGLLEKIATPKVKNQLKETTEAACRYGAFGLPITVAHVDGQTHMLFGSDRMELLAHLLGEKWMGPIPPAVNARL
UniProt P10412, whole entry, looked up: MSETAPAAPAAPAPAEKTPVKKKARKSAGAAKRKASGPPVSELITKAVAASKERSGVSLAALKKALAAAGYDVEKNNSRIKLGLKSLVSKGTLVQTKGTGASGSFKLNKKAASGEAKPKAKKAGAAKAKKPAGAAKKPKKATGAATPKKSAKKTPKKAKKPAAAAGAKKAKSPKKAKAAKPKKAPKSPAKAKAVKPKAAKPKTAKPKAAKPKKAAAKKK
UniProt Q92769, whole entry, looked up: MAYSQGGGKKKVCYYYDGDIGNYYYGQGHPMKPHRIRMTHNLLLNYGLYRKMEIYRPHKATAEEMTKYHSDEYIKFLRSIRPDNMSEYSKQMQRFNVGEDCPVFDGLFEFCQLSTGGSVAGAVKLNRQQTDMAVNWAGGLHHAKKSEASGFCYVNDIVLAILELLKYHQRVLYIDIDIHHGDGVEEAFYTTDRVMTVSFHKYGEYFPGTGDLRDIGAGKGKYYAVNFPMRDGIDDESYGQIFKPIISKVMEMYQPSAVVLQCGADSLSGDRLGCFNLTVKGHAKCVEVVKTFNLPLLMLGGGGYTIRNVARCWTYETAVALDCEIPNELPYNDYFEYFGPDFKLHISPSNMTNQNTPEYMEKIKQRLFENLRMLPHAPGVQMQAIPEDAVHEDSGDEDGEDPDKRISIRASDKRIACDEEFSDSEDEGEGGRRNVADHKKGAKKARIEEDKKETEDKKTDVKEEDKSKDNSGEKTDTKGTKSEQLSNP

Assays:
Test in all cases: log2 fold change, soluble protein after heating vs DMSO (PISA); higher = thermal stabilisation; K562 cells, 10 uM, 30 min; active = over 0.2 and 3.5 SD of the protein, either way, in both replicates (recomputed)
[1] = compound: COC1=CC=C(C=C1)CN2C=CC3=C2C=C(C=C3)C(=O)NO
In short: (§1)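 Aliquots of K562 cells (2×10^6 cells/mL) treated with 10 μM compound for 30 min were heated for 3 min over 48°C-58°C. After pooling and extraction in PBS with 0.5% NP-40 at 4°C, soluble protein from a 21,000xg, 90 min spin was quantified by TMTpro 16plex LC-MS/MS with channel sums equalised. Thermal stability is expressed against control samples, from duplicates, as a log2 fold change.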

[2] = compound: CON(C)C(=O)N1N=C(c2cc(F)ccc2F)S[C@@]1(CCCN)c1ccccc1 [filanesib]
In short: as §1

[3] = compound: CO[C@H]1C[C@@H]2CC[C@@H](C)[C@@](O)(O2)C(=O)C(=O)N2CCCC[C@H]2C(=O)O[C@H]([C@H](C)C[C@@H]2CC[C@H](n3cnnn3)[C@H](OC)C2)CC(=O)[C@H](C)/C=C(\C)[C@@H](O)[C@@H](OC)C(=O)[C@H](C)C[C@H](C)/C=C/C=C/C=C/1C [zotarolimus]
In short: as §1

[4] = compound: COc1cc(C(=O)O)ccc1NC(=O)[C@@H]1N[C@@H](CC(C)(C)C)[C@](C#N)(c2ccc(Cl)cc2F)[C@H]1c1cccc(Cl)c1F [idasanutlin]
In short: as §1

[5] = compound: COc1cc(Nc2ncc3c(n2)-c2ccc(Cl)cc2C(c2c(F)cccc2OC)=NC3)ccc1C(=O)O [alisertib]
In short: as §1

[6] = compound: COc1cc2nc(-c3cc(F)ccc3O)nc(N[C@@H]3CNC[C@H]3C(C)(C)O)c2cc1OC
In short: as §1

[7] = compound: COc1cc2ncnc(Nc3ccc(F)c(Cl)c3)c2cc1OCCCN1CCOCC1 [gefitinib]
In short: as §1

[8] = compound: COc1cccc2cc(-c3nc([C@H]4CC[C@H](C(=O)O)CC4)n4ncnc(N)c34)[nH]c12
In short: as §1

[9] = compound: CS(=O)(=O)CCNCc1ccc(-c2ccc3ncnc(Nc4ccc(OCc5cccc(F)c5)c(Cl)c4)c3c2)o1 [lapatinib]
In short: as §1

[10] = compound: CS(=O)(=O)N1CCN(Cc2cc3nc(-c4cccc5[nH]ncc45)nc(N4CCOCC4)c3s2)CC1 [pictilisib]
In short: as §1

Measured: log2 fold change

GTF2I (UniProt P78347)
inactive: [1] -0.09 | [2] 0.236 | [3] 0.027 | [4] 0.218 | [5] -0.016 | [6] -0.185 | [7] 0.022 | [8] -0.254 | [9] 0.129 | [10] 0.028

H1-5 (UniProt P16401)
inactive: [1] -0.087 | [2] 0.449 | [3] -0.029 | [4] 0.186 | [5] -0.163 | [6] -0.096 | [7] 0.001 | [8] -0.34 | [9] 0.034 | [10] -0.132

GYS1 (UniProt P13807)
inactive: [1] -0.045 | [2] 0.045 | [3] 0.124 | [4] 0.462 | [5] -0.026 | [6] -0.109 | [7] -0.006 | [8] -0.165 | [9] 0.013 | [10] 0.219

HBZ (UniProt P02008)
inactive: [1] 0.012 | [2] -0.003 | [3] 0.035 | [4] 0.045 | [5] -0.077 | [6] -0.055 | [7] 0.003 | [8] 0.093 | [9] 0.007 | [10] -0.006

GUSB (UniProt P08236)
inactive: [1] -0.063 | [2] -0.016 | [3] 0.014 | [4] 0.034 | [5] 0.022 | [6] -0.084 | [7] -0.013 | [8] -0.027 | [9] 0.016 | [10] 0.098

GSTZ1 (UniProt G3V4T6)
inactive: [1] -0.078 | [2] -0.037 | [3] -0.027 | [4] -0.061 | [5] 0.048 | [6] -0.01 | [7] -0.066 | [8] 0.109 | [9] -0.019 | [10] 0.079

GSTM4 (UniProt Q03013)
inactive: [1] 0.027 | [2] 0.103 | [3] 0.084 | [4] 0.031 | [5] 0.061 | [6] 0.084 | [7] -0.056 | [8] 0.068 | [9] 0.031 | [10] 0.022

HBD (UniProt P02042)
inactive: [1] 0.004 | [2] 0.046 | [3] -0.04 | [4] -0.066 | [5] -0.044 | [6] -0.146 | [7] 0.015 | [8] 0.07 | [9] 0.164 | [10] 0.175

GTPBP2 (UniProt Q9BX10)
inactive: [1] -0.01 | [2] 0.022 | [3] 0.062 | [4] 0.048 | [5] -0.035 | [6] 0.076 | [7] 0.098 | [8] -0.019 | [9] -0.084 | [10] -0.095

HEXB (UniProt P07686)
inactive: [1] 0.012 | [2] -0.092 | [3] -0.042 | [4] 0.018 | [5] -0.058 | [6] 0.017 | [7] 0.005 | [8] 0.044 | [9] -0.001 | [10] 0.021

HDLBP (UniProt Q00341)
inactive: [1] -0.088 | [2] 0.405 | [3] 0.148 | [4] 0.089 | [5] 0.027 | [6] 0 | [7] 0.027 | [8] -0.104 | [9] 0.107 | [10] -0.048

HEXIM1 (UniProt O94992)
inactive: [1] -0.036 | [2] 0.074 | [3] 0.016 | [4] 0.03 | [5] -0.026 | [6] 0.094 | [7] -0.039 | [8] 0.01 | [9] -0.013 | [10] 0.06

HAGH (UniProt Q16775)
inactive: [1] -0.095 | [2] -0.052 | [3] -0.052 | [4] -0.045 | [5] -0.013 | [6] -0.045 | [7] 0.011 | [8] 0.055 | [9] -0.006 | [10] 0.018

GTF2A2 (UniProt P52657)
inactive: [1] -0.067 | [2] -0.043 | [3] -0.006 | [4] -0.036 | [5] 0.018 | [6] 0.044 | [7] -0.028 | [8] 0.032 | [9] -0.042 | [10] 0.041

GTF2E2 (UniProt P29084)
inactive: [1] -0.014 | [2] 0.034 | [3] 0.027 | [4] -0.03 | [5] -0.027 | [6] 0 | [7] 0.009 | [8] -0.056 | [9] 0.022 | [10] 0.031

GTF2B (UniProt Q00403)
inactive: [1] 0.046 | [2] -0.018 | [3] 0.054 | [4] -0.085 | [5] -0.037 | [6] -0.001 | [7] 0.02 | [8] -0.006 | [9] -0.047 | [10] -0.025

GTF3C1 (UniProt Q12789)
inactive: [1] 0.101 | [2] 0.207 | [3] -0.26 | [4] -0.221 | [5] -0.165 | [6] 0.154 | [7] 0.017 | [8] 0.054 | [9] -0.332 | [10] 0.149

Eight consecutive entries already listed, for reference:
HBD (UniProt P02042)
inactive: [1] 0.004 | [2] 0.046 | [3] -0.04 | [4] -0.066 | [5] -0.044 | [6] -0.146 | [7] 0.015 | [8] 0.07 | [9] 0.164 | [10] 0.175

GTPBP2 (UniProt Q9BX10)
inactive: [1] -0.01 | [2] 0.022 | [3] 0.062 | [4] 0.048 | [5] -0.035 | [6] 0.076 | [7] 0.098 | [8] -0.019 | [9] -0.084 | [10] -0.095

HEXB (UniProt P07686)
inactive: [1] 0.012 | [2] -0.092 | [3] -0.042 | [4] 0.018 | [5] -0.058 | [6] 0.017 | [7] 0.005 | [8] 0.044 | [9] -0.001 | [10] 0.021

HDLBP (UniProt Q00341)
inactive: [1] -0.088 | [2] 0.405 | [3] 0.148 | [4] 0.089 | [5] 0.027 | [6] 0 | [7] 0.027 | [8] -0.104 | [9] 0.107 | [10] -0.048

HEXIM1 (UniProt O94992)
inactive: [1] -0.036 | [2] 0.074 | [3] 0.016 | [4] 0.03 | [5] -0.026 | [6] 0.094 | [7] -0.039 | [8] 0.01 | [9] -0.013 | [10] 0.06

HAGH (UniProt Q16775)
inactive: [1] -0.095 | [2] -0.052 | [3] -0.052 | [4] -0.045 | [5] -0.013 | [6] -0.045 | [7] 0.011 | [8] 0.055 | [9] -0.006 | [10] 0.018

GTF2A2 (UniProt P52657)
inactive: [1] -0.067 | [2] -0.043 | [3] -0.006 | [4] -0.036 | [5] 0.018 | [6] 0.044 | [7] -0.028 | [8] 0.032 | [9] -0.042 | [10] 0.041

GTF2E2 (UniProt P29084)
inactive: [1] -0.014 | [2] 0.034 | [3] 0.027 | [4] -0.03 | [5] -0.027 | [6] 0 | [7] 0.009 | [8] -0.056 | [9] 0.022 | [10] 0.031

(further entries)

GSTK1 (UniProt Q9Y2Q3)
inactive: [1] -0.038 | [2] -0.003 | [3] 0.066 | [4] -0.115 | [5] -0.078 | [6] 0.045 | [7] 0.027 | [8] 0.029 | [9] -0.039 | [10] 0.016

GTF2F1 (UniProt P35269)
inactive: [1] 0.038 | [2] -0.019 | [3] -0.037 | [4] -0.05 | [5] -0.065 | [6] 0.07 | [7] 0.01 | [8] 0.01 | [9] -0.053 | [10] 0.007

HCCS (UniProt P53701)
inactive: [1] -0.057 | [2] -0.014 | [3] -0.047 | [4] 0.025 | [5] -0.008 | [6] -0.014 | [7] 0.016 | [8] 0.11 | [9] 0.009 | [10] 0.001

HERC4 (UniProt Q5GLZ8)
inactive: [1] 0.041 | [2] -0.051 | [3] -0.007 | [4] -0.091 | [5] 0.028 | [6] -0.003 | [7] 0.003 | [8] 0.019 | [9] 0.033 | [10] 0.029

H1-4 (UniProt P10412)
inactive: [1] -0.103 | [2] 0.466 | [3] -0.033 | [4] 0.153 | [5] -0.035 | [6] -0.031 | [7] 0.024 | [8] -0.335 | [9] 0.098 | [10] -0.142

HARS2 (UniProt P49590)
inactive: [1] -0.003 | [2] 0.008 | [3] -0.005 | [4] 0.008 | [5] -0.019 | [6] 0.015 | [7] 0.018 | [8] 0.046 | [9] -0.016 | [10] 0.029

GSTO1 (UniProt P78417)
inactive: [1] -0.015 | [2] -0.031 | [3] -0.017 | [4] -0.037 | [5] -0.063 | [6] -0.048 | [7] -0.001 | [8] 0.021 | [9] 0.02 | [10] -0.033

HAUS5 (UniProt O94927)
inactive: [1] 0.12 | [2] -0.148 | [4] 0.023 | [5] -0.105 | [6] 0.224 | [7] 0.1 | [8] -0.215 | [9] -0.093 | [10] -0.154

H3-2 (UniProt Q5TEC6)
inactive: [1] -0.039 | [2] 0.358 | [5] 0.041 | [6] 0.326 | [7] 0.245 | [8] 0.163 | [9] -0.539 | [10] -0.035

HDAC2 (UniProt Q92769)
inactive: [1] -0.144 | [2] 0.029 | [3] 0.008 | [4] 0.008 | [5] -0.041 | [6] 0 | [7] 0.007 | [8] 0.017 | [9] 0.063 | [10] 0.024

HEATR1 (UniProt Q9H583)
inactive: [1] 0 | [2] 0.033 | [4] -0.118 | [5] -0.048 | [6] -0.146 | [7] 0.041 | [8] -0.111 | [9] 0.025 | [10] 0.095
